Results: PubChem BioAssay AID256 (DTP/NCI, 2004)
The list is a part of this screen's results and no random one: it is rich in T/C values a quarter to a half above the control, in often repeated tests (any T/C) and in doses without a T/C. Further doses and runs are listed elsewhere. T/C gives the treated animals as a percentage of the vehicle group. Some entries give survivors of the animals treated and no T/C: the source files T/C as zero there, which appears to mark a toxic dose or a test without result, not a measured value. Some doses without a T/C left all or most animals alive at the check, yet need not have been tolerated: survival well below the control is almost never listed, so the zero probably covers shortened survival too. Counts of survivors are from the toxicity check (mostly the fifth day) where no day follows; animals may have died later. Schedules are NCI's codes, read here as Q, the interval in days (D) or hours (H), X, the number of doses. Some entries were tested several times; the results are listed from low to high. For survival time, the PubChem record calls one and a half times the control and up active, and a quarter to a half above the control has no call in these data; cut-offs in other NCI protocols can differ. Some T/C values are followed by the survivors on the day toxicity was checked, most often the fifth; without a count, all were alive then.

Test system: CD2F1 mice, L1210 leukemia ip, survival T/C
Test: NCI In Vivo Anticancer Drug Screen. Data for tumor model L1210 Leukemia (intraperitoneal) in CD2F1 (CDF1) mice
Details: higher T/C = longer survival
Procedure, shortened: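 Vehicle-treated tumor-bearing mice served as controls (C) for compound-treated mice (T). Reported figure is T divided by C.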

[1] = T/C endpoint: mean survival time, dose: 100.0 mg/kg/injection, schedule: Q04DX003 (ip), vehicle: saline with Tween-80
[2] = T/C endpoint: mean survival time, dose: 400.0 mg/kg/injection, schedule: Q04DX002 (ip), vehicle: saline with Tween-80
[3] = T/C endpoint: mean survival time, dose: 200.0 mg/kg/injection, schedule: Q01DX009 (ip), vehicle: saline with Tween-80
[4] = T/C endpoint: mean survival time, dose: 200.0 mg/kg/injection, schedule: Q04DX003 (ip), vehicle: saline with Tween-80
[5] = T/C endpoint: mean survival time, dose: 400.0 mg/kg/injection, schedule: Q04DX003 (ip), vehicle: saline with Tween-80

CC(C)CN1CCCC(=O)C(O)CCC1 (stereo unspecified)
survivor count (T/C endpoint: mean survival time, dose: 100.0 mg/kg/injection, schedule: Q01DX009 (ip), vehicle: acetone): 0 of 6

COc1ccc2cc[n+](C)c(Cc3ccc(OC)c(Oc4ccc(Cc5c(OC)ccc6cc[n+](C)cc56)cc4)c3)c2c1
survivor count (T/C endpoint: mean survival time, dose: 12.5 mg/kg/injection, schedule: Q04DX003 (ip), vehicle: other): 1 of 3
survivor count (T/C endpoint: mean survival time, dose: 25.0 mg/kg/injection, schedule: Q04DX003 (ip), vehicle: other): 0 of 3

CN(C)CCNC1=C(Cl)C(=O)c2ccccc2C1=O
survivor count (T/C endpoint: mean survival time, dose: 50.0 mg/kg/injection, schedule: Q04DX003 (ip), vehicle: saline with Tween-80): 0 of 6
survivor count [1]: 0 of 6

N#C[CH2][Sn]([I])([c]1ccccc1)[c]1ccccc1
survivor count (T/C endpoint: mean survival time, dose: 1.56 mg/kg/injection, schedule: Q01DX009 (ip), vehicle: saline): 1 of 3

CCCCc1ccc(C(=O)O)nc1.[Cu+2]
survivor count (T/C endpoint: mean survival time, dose: 75.0 mg/kg/injection, schedule: Q01DX001 (ip), vehicle: saline): 0 of 6
survivor count (T/C endpoint: mean survival time, dose: 150.0 mg/kg/injection, schedule: Q01DX001 (ip), vehicle: saline): 0 of 6
survivor count (T/C endpoint: mean survival time, dose: 300.0 mg/kg/injection, schedule: Q01DX001 (ip), vehicle: saline): 0 of 6

CCCCCCC(O)C[N+](=O)[O-] (stereo unspecified)
survivor count (T/C endpoint: mean survival time, dose: 100.0 mg/kg/injection, schedule: Q01DX009 (ip), vehicle: saline with Tween-80): 3 of 6

O=C(CBr)CC(O)(C(F)(F)F)C(F)(F)F
survivor count (T/C endpoint: mean survival time, dose: 25.0 mg/kg/injection, schedule: Q04DX003 (ip), vehicle: saline): 6 of 6
survivor count (T/C endpoint: mean survival time, dose: 50.0 mg/kg/injection, schedule: Q04DX003 (ip), vehicle: saline): 1 of 6
survivor count (T/C endpoint: mean survival time, dose: 100.0 mg/kg/injection, schedule: Q04DX003 (ip), vehicle: Klucel (hydroxypropylcellulose) (HPC)): 3 of 6
survivor count (T/C endpoint: mean survival time, dose: 200.0 mg/kg/injection, schedule: Q04DX003 (ip), vehicle: Klucel (hydroxypropylcellulose) (HPC)): 3 of 6
survivor count (T/C endpoint: mean survival time, dose: 400.0 mg/kg/injection, schedule: Q04DX003 (ip), vehicle: Klucel (hydroxypropylcellulose) (HPC)): 0 of 6

CN(C(=O)N(CCCl)N=O)C1CCCCC1
T/C (T/C endpoint: mean survival time, dose: 120.0 mg/kg/injection, schedule: Q01DX001 (ip), vehicle: saline with Tween-80): 135 % of control

C=C(Cl)CSCCS
survivor count (T/C endpoint: mean survival time, dose: 200.0 mg/kg/injection, schedule: Q01DX009 (ip), vehicle: acetone): 2 of 6

CSc1ncnc2c1nnn2C1OC(COC(=O)c2ccccc2)C(OC(=O)c2ccccc2)C1OC(=O)c1ccccc1 (stereo unspecified)
T/C (T/C endpoint: median survival time, dose: 100.0 mg/kg/injection, schedule: Q01DX005 (ip), vehicle: Klucel (hydroxypropylcellulose) (HPC)): 133 % of control
T/C (T/C endpoint: median survival time, dose: 200.0 mg/kg/injection, schedule: Q01DX005 (ip), vehicle: Klucel (hydroxypropylcellulose) (HPC)): 133 and 145 % of control

c1ccc(C(Nc2ncnc3nncnc23)c2ccccc2)cc1
survivor count (T/C endpoint: mean survival time, dose: 150.0 mg/kg/injection, schedule: Q01DX001 (ip), vehicle: other): 2 of 6
survivor count (T/C endpoint: mean survival time, dose: 300.0 mg/kg/injection, schedule: Q01DX001 (ip), vehicle: other): 0 of 6

O=C1C=C(N2CC2)C(=O)C(N2CC2)=C1N1CC1
T/C (T/C endpoint: median survival time, dose: 25.0 micrograms/kg/injection, schedule: Q01DX009 (ip), vehicle: saline with Tween-80): 148 % of control
T/C (T/C endpoint: median survival time, dose: 50.0 micrograms/kg/injection, schedule: Q01DX009 (ip), vehicle: saline): 128 % of control
T/C (T/C endpoint: median survival time, dose: 100.0 micrograms/kg/injection, schedule: Q01DX009 (ip), vehicle: saline with Tween-80): 129 % of control
T/C (T/C endpoint: median survival time, dose: 100.0 micrograms/kg/injection, schedule: Q01DX009 (ip), vehicle: saline): 142 % of control [1 of 1 alive]
T/C (T/C endpoint: median survival time, dose: 200.0 micrograms/kg/injection, schedule: Q01DX009 (ip), vehicle: saline): 147 % of control

O=C(CC(Cl)(C(F)(F)F)C(F)(F)F)c1cccc([N+](=O)[O-])c1
survivor count (T/C endpoint: mean survival time, dose: 100.0 mg/kg/injection, schedule: Q01DX001 (ip), vehicle: saline with Tween-80): 0 of 6
survivor count (T/C endpoint: mean survival time, dose: 200.0 mg/kg/injection, schedule: Q01DX001 (ip), vehicle: saline with Tween-80): 1 of 6
survivor count (T/C endpoint: mean survival time, dose: 400.0 mg/kg/injection, schedule: Q01DX001 (ip), vehicle: saline with Tween-80): 2 of 6

CN(Cc1ccc2nc(N)nc(N)c2n1)c1ccc(C(=O)NC(CCC(=O)O)C(=O)O)cc1 (stereo unspecified)
T/C (T/C endpoint: mean survival time, dose: 0.03 mg/kg/injection, schedule: Q01DX005 (ip), vehicle: sodium bicarbonate): 126 % of control
T/C (T/C endpoint: mean survival time, dose: 0.06 mg/kg/injection, schedule: Q01DX005 (ip), vehicle: sodium bicarbonate): 138 % of control
T/C (T/C endpoint: mean survival time, dose: 0.25 mg/kg/injection, schedule: Q01DX005 (ip), vehicle: sodium bicarbonate): 148 % of control
survivor count (T/C endpoint: mean survival time, dose: 0.5 mg/kg/injection, schedule: Q01DX005 (ip), vehicle: sodium bicarbonate): 6 of 6
survivor count (T/C endpoint: mean survival time, dose: 1.0 mg/kg/injection, schedule: Q01DX005 (ip), vehicle: sodium bicarbonate): 3 of 6 and 6 of 6
survivor count (T/C endpoint: mean survival time, dose: 2.0 mg/kg/injection, schedule: Q01DX005 (ip), vehicle: sodium bicarbonate): 3 of 6
survivor count (T/C endpoint: mean survival time, dose: 4.0 mg/kg/injection, schedule: Q01DX005 (ip), vehicle: sodium bicarbonate): 4 of 6
survivor count (T/C endpoint: mean survival time, dose: 8.0 mg/kg/injection, schedule: Q01DX005 (ip), vehicle: sodium bicarbonate): 6 of 6
survivor count (T/C endpoint: mean survival time, dose: 16.0 mg/kg/injection, schedule: Q01DX005 (ip), vehicle: sodium bicarbonate): 5 of 6
T/C (T/C endpoint: mean survival time, dose: 250.0 micrograms/kg/injection, schedule: Q01DX005 (ip), vehicle: sodium bicarbonate): 148 % of control
survivor count (T/C endpoint: mean survival time, dose: 500.0 micrograms/kg/injection, schedule: Q01DX005 (ip), vehicle: sodium bicarbonate): 5 of 6

CC1(C)N=C(N)N=C(N)N1c1ccc(CCC(=O)Nc2ccc(S(=O)(=O)F)cc2)cc1
T/C (T/C endpoint: mean survival time, dose: 50.0 mg/kg/injection, schedule: Q01DX009 (ip), vehicle: saline with Tween-80): 131 % of control
T/C (T/C endpoint: mean survival time, dose: 50.0 mg/kg/injection, schedule: Q01DX009 (ip), vehicle: saline): 137 % of control
T/C (T/C endpoint: mean survival time, dose: 100.0 mg/kg/injection, schedule: Q01DX009 (ip), vehicle: saline): 144 % of control

COc1ccc(N(C)c2ccc(C(=C3C=CC(=[N+](C)CCO)C=C3)c3ccc(N(C)CCO)cc3)cc2)cc1
T/C (T/C endpoint: mean survival time, dose: 12.5 mg/kg/injection, schedule: Q04DX002 (ip), vehicle: saline with Tween-80): 141 % of control
survivor count (T/C endpoint: mean survival time, dose: 100.0 mg/kg/injection, schedule: Q04DX002 (ip), vehicle: saline with Tween-80): 0 of 3
survivor count (T/C endpoint: mean survival time, dose: 200.0 mg/kg/injection, schedule: Q04DX002 (ip), vehicle: saline with Tween-80): 0 of 3
survivor count [2]: 0 of 3

CS(=O)(=O)c1nc2ccccc2s1
survivor count (T/C endpoint: mean survival time, dose: 400.0 mg/kg/injection, schedule: Q01DX009 (ip), vehicle: saline with Tween-80): 0 of 6

COc1c(CNC(=O)CCl)cc2[nH]c(C)cc2c1CNC(=O)CCl
survivor count (T/C endpoint: mean survival time, dose: 400.0 mg/kg/injection, schedule: Q01DX009 (ip), vehicle: Klucel (hydroxypropylcellulose) (HPC)): 1 of 6

O=C1OCCN1NCc1ccc(Cl)cc1
survivor count (T/C endpoint: mean survival time, dose: 200.0 mg/kg/injection, schedule: Q01DX009 (ip), vehicle: DMSO): 2 of 6

O=[N+]1C=CC(=NN=c2ccn([O-])cc2)C=C1
survivor count [2]: 3 of 3

CC1=CC2c3cccc4[nH]cc(c34)CC2N(C)C1 (stereo unspecified)
survivor count (T/C endpoint: median survival time, dose: 40.0 mg/kg/injection, schedule: Q01DX009 (ip), vehicle: suspension in saline): 2 of 6

Nc1cc(=O)[nH]c(O)c1C(=O)O
survivor count [3]: 3 of 6

CC(Cc1ccccc1)NC=O (stereo unspecified)
survivor count [3]: 1 of 3

Cc1ccc(/C=N\N=C\c2ccc(C)cc2)cc1
survivor count [4]: 6 of 6

O=C(C1CO1)C(Cl)(Cl)Cl (stereo unspecified)
survivor count (T/C endpoint: median survival time, dose: 100.0 mg/kg/injection, schedule: Q01DX009 (ip), vehicle: saline): 0 of 6
survivor count (T/C endpoint: median survival time, dose: 200.0 mg/kg/injection, schedule: Q01DX009 (ip), vehicle: saline): 0 of 6

CCc1nc2cc(C)c(C)cc2[nH]1
survivor count [1]: 6 of 6
survivor count [4]: 0 of 6
survivor count [5]: 0 of 6

S=c1[n-]c2ccccc2s1.S=c1[n-]c2ccccc2s1.[Cl][Pt+2][Cl]
survivor count [5]: 0 of 4
